Laboratory results from the supplement of paper PMC12067093, “Discovery and optimisation of a covalent ligand for TRIM25 and its application to targeted protein ubiquitination” (Chemical Science, 2025).
This is one part of the list.

Amino acid sequences for entries named in this document (tags omitted). A change or cut given only in a name is not applied to a line headed by its entry.
UniProt P52701: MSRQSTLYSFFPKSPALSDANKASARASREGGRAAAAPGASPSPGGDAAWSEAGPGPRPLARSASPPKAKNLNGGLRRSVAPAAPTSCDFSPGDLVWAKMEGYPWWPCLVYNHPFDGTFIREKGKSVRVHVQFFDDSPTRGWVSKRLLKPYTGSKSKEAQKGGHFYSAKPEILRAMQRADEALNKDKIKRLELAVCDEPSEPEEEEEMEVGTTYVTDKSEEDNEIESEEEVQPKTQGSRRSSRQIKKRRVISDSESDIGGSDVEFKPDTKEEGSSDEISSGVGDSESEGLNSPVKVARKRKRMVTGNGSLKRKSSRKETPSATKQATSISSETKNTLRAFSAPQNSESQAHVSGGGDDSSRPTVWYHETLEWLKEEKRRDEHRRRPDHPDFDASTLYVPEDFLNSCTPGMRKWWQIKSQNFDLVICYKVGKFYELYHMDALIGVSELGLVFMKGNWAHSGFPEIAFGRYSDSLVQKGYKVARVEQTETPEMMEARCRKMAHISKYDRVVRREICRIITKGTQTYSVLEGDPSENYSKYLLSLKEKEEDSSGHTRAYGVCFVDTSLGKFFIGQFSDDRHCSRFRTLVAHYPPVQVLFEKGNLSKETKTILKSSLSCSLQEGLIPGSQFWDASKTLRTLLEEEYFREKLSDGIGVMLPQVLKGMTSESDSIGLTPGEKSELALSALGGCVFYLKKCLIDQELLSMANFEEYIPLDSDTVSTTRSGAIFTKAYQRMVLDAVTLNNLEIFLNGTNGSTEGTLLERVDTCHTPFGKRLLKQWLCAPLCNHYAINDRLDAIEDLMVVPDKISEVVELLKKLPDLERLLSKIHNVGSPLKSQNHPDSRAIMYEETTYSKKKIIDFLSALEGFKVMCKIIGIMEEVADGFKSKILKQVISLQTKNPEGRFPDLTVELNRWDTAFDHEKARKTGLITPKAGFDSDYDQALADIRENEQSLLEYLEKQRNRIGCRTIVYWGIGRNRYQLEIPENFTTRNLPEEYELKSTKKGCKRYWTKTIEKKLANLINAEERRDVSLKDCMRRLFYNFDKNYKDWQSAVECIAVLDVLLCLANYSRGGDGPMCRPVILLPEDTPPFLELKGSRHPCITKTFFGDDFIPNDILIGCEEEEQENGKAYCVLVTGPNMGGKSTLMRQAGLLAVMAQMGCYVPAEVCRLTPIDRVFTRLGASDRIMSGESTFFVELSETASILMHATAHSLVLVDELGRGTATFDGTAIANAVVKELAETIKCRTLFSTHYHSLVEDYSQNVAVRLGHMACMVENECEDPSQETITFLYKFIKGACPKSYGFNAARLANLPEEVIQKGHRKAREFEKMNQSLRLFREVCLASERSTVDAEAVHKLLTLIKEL
UniProt P42285: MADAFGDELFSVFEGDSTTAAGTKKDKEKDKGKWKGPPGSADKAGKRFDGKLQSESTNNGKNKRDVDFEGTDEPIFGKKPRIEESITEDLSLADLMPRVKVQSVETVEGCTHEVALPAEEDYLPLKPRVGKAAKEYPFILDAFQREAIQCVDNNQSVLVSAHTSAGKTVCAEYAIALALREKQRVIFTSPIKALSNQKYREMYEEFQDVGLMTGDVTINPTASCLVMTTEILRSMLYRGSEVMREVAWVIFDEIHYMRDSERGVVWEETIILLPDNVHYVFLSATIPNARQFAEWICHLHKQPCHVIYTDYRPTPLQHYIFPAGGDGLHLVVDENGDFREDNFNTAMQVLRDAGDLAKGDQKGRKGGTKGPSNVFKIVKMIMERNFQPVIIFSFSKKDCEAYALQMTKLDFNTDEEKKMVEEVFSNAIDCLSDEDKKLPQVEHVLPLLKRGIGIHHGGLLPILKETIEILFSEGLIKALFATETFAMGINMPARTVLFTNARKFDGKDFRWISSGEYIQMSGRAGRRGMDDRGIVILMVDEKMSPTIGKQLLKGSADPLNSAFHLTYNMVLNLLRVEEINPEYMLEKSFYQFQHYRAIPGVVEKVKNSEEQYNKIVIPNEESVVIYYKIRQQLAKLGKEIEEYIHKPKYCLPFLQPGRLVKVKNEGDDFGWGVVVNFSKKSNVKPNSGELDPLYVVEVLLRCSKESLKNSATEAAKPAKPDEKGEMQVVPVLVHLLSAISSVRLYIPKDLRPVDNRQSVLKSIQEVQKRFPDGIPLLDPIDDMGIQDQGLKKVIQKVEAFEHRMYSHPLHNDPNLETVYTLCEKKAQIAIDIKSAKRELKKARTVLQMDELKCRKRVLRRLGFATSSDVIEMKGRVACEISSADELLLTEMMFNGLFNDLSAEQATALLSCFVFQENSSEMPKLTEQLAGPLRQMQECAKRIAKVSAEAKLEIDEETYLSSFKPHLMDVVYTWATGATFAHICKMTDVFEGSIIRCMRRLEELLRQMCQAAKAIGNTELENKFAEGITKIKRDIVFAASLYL
UniProt P35579, whole entry, looked up: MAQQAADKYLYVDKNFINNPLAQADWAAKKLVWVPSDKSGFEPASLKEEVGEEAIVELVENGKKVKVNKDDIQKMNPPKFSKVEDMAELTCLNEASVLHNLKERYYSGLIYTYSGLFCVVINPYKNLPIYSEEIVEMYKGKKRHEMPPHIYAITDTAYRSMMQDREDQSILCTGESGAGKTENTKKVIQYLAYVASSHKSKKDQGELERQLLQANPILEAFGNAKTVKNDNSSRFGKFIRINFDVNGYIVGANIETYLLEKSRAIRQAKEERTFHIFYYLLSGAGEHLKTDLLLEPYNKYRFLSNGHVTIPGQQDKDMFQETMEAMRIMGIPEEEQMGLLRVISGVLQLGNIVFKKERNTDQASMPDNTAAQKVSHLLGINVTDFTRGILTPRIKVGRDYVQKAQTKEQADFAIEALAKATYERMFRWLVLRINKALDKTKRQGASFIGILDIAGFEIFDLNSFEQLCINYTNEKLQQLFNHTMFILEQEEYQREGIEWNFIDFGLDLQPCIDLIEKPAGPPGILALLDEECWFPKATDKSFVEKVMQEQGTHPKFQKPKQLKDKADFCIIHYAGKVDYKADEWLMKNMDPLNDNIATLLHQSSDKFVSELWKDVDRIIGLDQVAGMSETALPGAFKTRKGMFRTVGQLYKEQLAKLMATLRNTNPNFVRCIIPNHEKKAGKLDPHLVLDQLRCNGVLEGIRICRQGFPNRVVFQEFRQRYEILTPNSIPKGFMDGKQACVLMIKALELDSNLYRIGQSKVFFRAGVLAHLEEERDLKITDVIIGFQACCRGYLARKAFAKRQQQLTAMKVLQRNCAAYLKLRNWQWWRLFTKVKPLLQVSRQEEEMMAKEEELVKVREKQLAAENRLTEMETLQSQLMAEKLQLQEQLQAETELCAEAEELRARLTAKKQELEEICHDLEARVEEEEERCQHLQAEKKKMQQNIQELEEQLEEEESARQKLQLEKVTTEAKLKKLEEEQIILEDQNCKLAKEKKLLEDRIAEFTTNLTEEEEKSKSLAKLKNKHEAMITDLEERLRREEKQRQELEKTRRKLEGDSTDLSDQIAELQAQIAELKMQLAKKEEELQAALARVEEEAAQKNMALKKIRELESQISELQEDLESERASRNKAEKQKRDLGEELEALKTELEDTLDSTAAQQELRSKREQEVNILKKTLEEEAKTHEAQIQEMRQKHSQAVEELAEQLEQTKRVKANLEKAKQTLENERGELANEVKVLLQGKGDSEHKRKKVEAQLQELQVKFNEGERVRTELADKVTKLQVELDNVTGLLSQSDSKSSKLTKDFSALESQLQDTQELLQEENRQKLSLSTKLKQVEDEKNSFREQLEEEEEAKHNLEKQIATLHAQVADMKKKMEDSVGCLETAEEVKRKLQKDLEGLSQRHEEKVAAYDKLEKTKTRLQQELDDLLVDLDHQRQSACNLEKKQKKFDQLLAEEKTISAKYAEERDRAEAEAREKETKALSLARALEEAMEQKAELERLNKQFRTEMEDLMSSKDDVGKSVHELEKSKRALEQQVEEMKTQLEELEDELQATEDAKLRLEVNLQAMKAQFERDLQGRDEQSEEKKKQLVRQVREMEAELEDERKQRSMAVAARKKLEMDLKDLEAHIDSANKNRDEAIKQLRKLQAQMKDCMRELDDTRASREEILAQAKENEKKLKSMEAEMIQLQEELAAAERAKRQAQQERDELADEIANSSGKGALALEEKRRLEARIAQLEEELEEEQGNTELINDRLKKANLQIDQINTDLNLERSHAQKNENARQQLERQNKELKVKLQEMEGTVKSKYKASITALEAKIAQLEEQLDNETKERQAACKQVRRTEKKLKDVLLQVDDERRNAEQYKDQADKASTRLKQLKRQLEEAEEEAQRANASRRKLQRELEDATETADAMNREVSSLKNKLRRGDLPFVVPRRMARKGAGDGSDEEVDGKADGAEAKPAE
UniProt Q9NXD2: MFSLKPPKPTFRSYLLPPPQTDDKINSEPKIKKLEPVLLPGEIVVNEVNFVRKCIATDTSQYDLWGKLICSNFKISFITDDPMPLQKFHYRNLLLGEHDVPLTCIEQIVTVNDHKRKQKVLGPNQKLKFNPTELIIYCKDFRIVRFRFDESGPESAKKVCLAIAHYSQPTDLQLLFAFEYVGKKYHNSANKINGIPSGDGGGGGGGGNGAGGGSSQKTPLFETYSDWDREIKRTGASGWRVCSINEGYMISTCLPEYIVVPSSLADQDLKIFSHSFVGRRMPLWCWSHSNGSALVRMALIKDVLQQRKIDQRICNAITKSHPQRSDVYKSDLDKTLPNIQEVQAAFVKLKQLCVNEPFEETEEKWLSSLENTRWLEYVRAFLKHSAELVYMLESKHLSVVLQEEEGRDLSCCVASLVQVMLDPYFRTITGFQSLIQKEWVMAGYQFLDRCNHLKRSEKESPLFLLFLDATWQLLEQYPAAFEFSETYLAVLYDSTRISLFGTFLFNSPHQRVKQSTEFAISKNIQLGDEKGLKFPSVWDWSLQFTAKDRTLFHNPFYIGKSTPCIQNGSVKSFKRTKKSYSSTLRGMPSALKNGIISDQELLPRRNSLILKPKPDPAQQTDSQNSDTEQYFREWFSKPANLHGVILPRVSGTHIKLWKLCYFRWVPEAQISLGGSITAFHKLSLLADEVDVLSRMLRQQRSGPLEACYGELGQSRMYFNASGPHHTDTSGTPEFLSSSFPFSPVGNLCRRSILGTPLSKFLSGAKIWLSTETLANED
UniProt Q9Y6C9: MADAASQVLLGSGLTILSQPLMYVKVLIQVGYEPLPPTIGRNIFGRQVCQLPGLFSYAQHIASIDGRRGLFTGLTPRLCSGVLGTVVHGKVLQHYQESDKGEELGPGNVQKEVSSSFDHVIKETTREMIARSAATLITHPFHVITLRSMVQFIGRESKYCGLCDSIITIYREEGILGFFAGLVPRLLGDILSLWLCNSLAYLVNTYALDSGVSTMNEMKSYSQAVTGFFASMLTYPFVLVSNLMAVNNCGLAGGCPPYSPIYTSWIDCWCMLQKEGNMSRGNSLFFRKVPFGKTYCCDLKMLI
UniProt Q6UB35, whole entry, looked up: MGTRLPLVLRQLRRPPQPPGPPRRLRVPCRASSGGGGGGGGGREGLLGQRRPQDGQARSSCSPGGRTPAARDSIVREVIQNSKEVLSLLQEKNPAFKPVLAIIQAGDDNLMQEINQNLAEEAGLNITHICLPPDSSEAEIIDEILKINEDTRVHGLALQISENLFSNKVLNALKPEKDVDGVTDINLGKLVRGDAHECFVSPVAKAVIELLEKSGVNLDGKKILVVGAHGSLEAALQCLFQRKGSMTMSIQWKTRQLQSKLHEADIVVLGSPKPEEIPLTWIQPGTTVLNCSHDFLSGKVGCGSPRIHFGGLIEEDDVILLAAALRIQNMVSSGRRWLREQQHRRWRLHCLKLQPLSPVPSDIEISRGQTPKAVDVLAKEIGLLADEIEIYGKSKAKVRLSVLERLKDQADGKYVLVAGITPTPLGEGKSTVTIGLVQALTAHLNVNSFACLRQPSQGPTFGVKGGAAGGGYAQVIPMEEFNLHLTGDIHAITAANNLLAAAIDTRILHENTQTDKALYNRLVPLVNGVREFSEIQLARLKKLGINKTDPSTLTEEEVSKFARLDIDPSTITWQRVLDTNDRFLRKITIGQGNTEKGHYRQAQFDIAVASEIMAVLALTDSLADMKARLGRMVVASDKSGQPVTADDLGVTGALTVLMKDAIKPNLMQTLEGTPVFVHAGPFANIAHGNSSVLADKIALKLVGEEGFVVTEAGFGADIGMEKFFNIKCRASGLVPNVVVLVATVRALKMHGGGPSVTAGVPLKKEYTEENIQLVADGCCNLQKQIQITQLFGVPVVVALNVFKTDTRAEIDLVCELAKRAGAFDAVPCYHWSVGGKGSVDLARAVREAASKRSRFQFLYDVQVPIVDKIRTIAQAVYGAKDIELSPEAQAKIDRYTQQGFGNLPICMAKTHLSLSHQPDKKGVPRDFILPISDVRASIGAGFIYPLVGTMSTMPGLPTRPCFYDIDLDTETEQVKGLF

Compound: Cc1cc(ccc1-c1ccccc1)C(=O)N1CCCN(CC1)C(=O)CCl [compound 10]
Experiment: probe-labelled cysteine peptide fold change vs DMSO (competition) (log2 fold change); higher = less target engagement (more negative = stronger competition)
Settings: THP-1, incubation time: 4 h
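Note: competitive profiling in live THP-1 cells: cysteine peptides tagged with an iodoacetamide desthiobiotin (IA-DTB) probe, intensity after compound treatment relative to DMSO-treated cells.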

Target | probe-labelled cysteine peptide fold change (10 µM) | probe-labelled cysteine peptide fold change (50 µM)
MRPS7_Q9Y2R9_152_NCEPMIGLVPILK (UniProt Q9Y2R9) | 0.154 | -0.0438
MSH6_P52701_783_QWLCAPLCNHYAINDRLDAIEDLMVVPDK (UniProt P52701) | -0.0798 | -0.389
MTA2_O94776_126_EDCFFYSLVFDPVQK (UniProt O94776) | 0.276 | 0.226
MYCBP2_O75592_938_FDCELR (UniProt O75592) | 0.00942 | -0.217
MYB_P10242_374_CMIVHQGTILDNVK (UniProt P10242) | 0.0649 | -0.298
MSTO1_Q9BUK6_347_LCSSPVSMVHLADMLSFCGK (UniProt Q9BUK6) | 0.0999 | 0.248
MTA3_Q9BTC8_532_KPLACIIGYLEIHPAK (UniProt Q9BTC8) | -0.345 | -0.533
MTREX_P42285_650_YCLPFLQPGR (UniProt P42285) | 0.122 | 0.266
MTREX_P42285_430_KMVEEVFSNAIDCLSDEDK (UniProt P42285) | -0.306 | -0.485
MYH10_P35580_1011_IAECSSQLAEEEEK (UniProt P35580) | -0.11 | -0.111
MYH9_P35579_1437_QSACNLEK (UniProt P35579) | -0.0174 | -0.27
MSH6_P52701_406_RPDHPDFDASTLYVPEDFLNSCTPGMR (UniProt P52701) | -0.103 | -0.024
MTM1_Q13496_53_EVIYICPFNGPIK (UniProt Q13496) | -0.0979 | -0.467
MTMR10_Q9NXD2_70_LICSNFK (UniProt Q9NXD2) | -0.125 | -0.103
MRPS2_Q9Y399_162_DCGEYAHTR (UniProt Q9Y399) | -0.0234 | 0.183
MX2_P20592_407_CGADIPSQEADK (UniProt P20592) | -0.1 | 0.0329
MTHFSD_Q2M296_215_VIATGCK (UniProt Q2M296) | -0.0424 | 0.289
MYCBP2_O75592_4393_THPCGHPCGGVK (UniProt O75592) | -0.00693 | -0.0775
MTCH2_Q9Y6C9_49_QVCQLPGLFSYAQHIASIDGRR (UniProt Q9Y6C9) | -0.229 | -0.382
MYADM_Q96S97_279_SRDVSCSR (UniProt Q96S97) | 1.07 | 1.22

Target | probe-labelled cysteine peptide fold change (10 µM) | probe-labelled cysteine peptide fold change (50 µM)
MTF2_Q9Y483_133_CGQGYHQLCHTPHIDSSVIDSDEK (UniProt Q9Y483) | 0.213 | 0.623
MTOR_P42345_1593_AYGAMVSCHMLSELEEVIQYK (UniProt P42345) | -0.0907 | -0.0524
MYCBP2_O75592_4544_YAYYVCYK (UniProt O75592) | -0.0266 | -0.193
MYBBP1A_Q9BQG0_1031_HQACLLLQK (UniProt Q9BQG0) | -0.0483 | -0.0353
MTMR2_Q13614_155_GENSYGLETVCK (UniProt Q13614) | -0.124 | 0.059
MYCBP2_O75592_1516_ILSEGVDHCMVK (UniProt O75592) | 0.145 | -0.337
MYCBP2_O75592_4318_VDLHEGCGR (UniProt O75592) | 0.12 | 0.319
MSH3_P20585_847_QGDYCRPTVQEER (UniProt P20585) | -0.0854 | 0.177
MTRF1_O75570_335_LVHIPTGLVVECQQER (UniProt O75570) | -0.125 | -0.305
MYH9_P35579_789_ITDVIIGFQACCR (UniProt P35579) | -0.109 | -0.0345
MTMR10_Q9NXD2_707_SGPLEACYGELGQSR (UniProt Q9NXD2) | -0.0765 | -0.331
MTHFD1L_Q6UB35_906_YTQQGFGNLPICMAK (UniProt Q6UB35) | -0.063 | -0.0614
MVD_P53602_108_DGDPLPSSLSCK (UniProt P53602) | -0.0088 | -0.0367
MRPS28_Q9Y2Q9_122+124_FHCVCR (UniProt Q9Y2Q9) | 0.137 | -0.442
MRPS30_Q9NP92_293_TADPCCYGHTQFHLLPDK (UniProt Q9NP92) | 0.0312 | -0.0142
MRPS34_P82930_93_SWLWQHDEPCYWR (UniProt P82930) | 0.00309 | 0.0608
MYD88_Q99836_203_LCVSDRDVLPGTCVWSIASELIEK (UniProt Q99836) | 0.307 | -0.566
MSH6_P52701_1158_QAGLLAVMAQMGCYVPAEVCR (UniProt P52701) | -0.0653 | 0.217
MTCH2_Q9Y6C9_49_QVCQLPGLFSYAQHIASIDGR (UniProt Q9Y6C9) | -0.0446 | 0.0916
MUT_P22033_471_IEECAAR (UniProt P22033) | -0.147 | -0.181

As entered above:
Value for MVD_P53602_108_DGDPLPSSLSCK (UniProt P53602) under probe-labelled cysteine peptide fold change (10 µM): -0.0088
Value for MTHFD1L_Q6UB35_906_YTQQGFGNLPICMAK (UniProt Q6UB35) under probe-labelled cysteine peptide fold change (50 µM): -0.0614
Value for MRPS34_P82930_93_SWLWQHDEPCYWR (UniProt P82930) under probe-labelled cysteine peptide fold change (10 µM): 0.00309
